# Laboratory results: PubChem BioAssay AID1671195 (Yale University, 2021)
# Assay: 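Regulators of LDL receptor activity judged by labelled LDL uptake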 (primary screen)
# System: human Huh7 hepatoma cells
# Reagent: siRNA pool against human genes, 18 nM
# Timing: about 2 to 2.5 days of knockdown, then 8 h LDL uptake
# Conditions: DiI-labelled LDL at 30 µg/ml for 8 h, in lipoprotein-deficient serum medium
# Detection: 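Fluorescent LDL signal imaged in cells, scaled to the plate median, robust z-score for each replicate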
# Reading the numbers: robust z-score: higher = more LDL uptake after knockdown
# Active means: 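Active when two or more replicates show a robust z-score above 2 or below -2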
# Shown is an unselected part of about 22,000 reagents. About 1,510 of all reagents (6.9%) count as active. 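Active includes knockdowns raising or lowering LDL uptake; positive z-scores mean more uptake, negative mean less.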 Unmarked entries are inactive.
gene knocked down,"robust z-score, replicate 1","robust z-score, replicate 2","robust z-score, replicate 3"
CRIM1 (GeneID 51232),-0.0758,-0.0599,-0.032
FKBP4 (GeneID 2288),-0.971,-0.8,-0.881
MIR1915HG (GeneID 399726),1.39,0.895,0.821
LOC440805 (retired record) (GeneID 440805),2.39 (active),2.3,2.4
IFT140 (GeneID 9742),0.439,0.293,-0.335
GAS2L2 (GeneID 246176),-0.103,-0.308,-0.167
LOC440570 (GeneID 440570),-0.264,-0.7,-0.27
HSPA8 (GeneID 3312),-0.751,-0.502,-0.704
LOC389107 (retired record) (GeneID 389107),-0.216,-0.0529,-0.0601
MRPL13 (GeneID 28998),-0.283,2.6,1.12
PCBP3 (GeneID 54039),-0.48,-0.361,0.116
SH3GL3 (GeneID 6457),2.15,0.155,0.367
CNTN5 (GeneID 53942),1.7,0.384,0.479
VGF (GeneID 7425),-0.815,-1.06,-0.618
SLC6A5 (GeneID 9152),-1.23,-0.873,-1.03
PAXX (GeneID 286257),3.03 (active),3.11,3.84
IQCF5 (GeneID 389124),0.165,-0.311,-0.0458
LOC442039 (retired record) (GeneID 442039),0.966,0.184,0.792
DTNA (GeneID 1837),1.54,2.15,0.793
PCSK6 (GeneID 5046),-0.367,0.746,0.187
ASAH1 (GeneID 427),-0.116,0.198,0.0979
SYT14P1 (GeneID 401135),0.566,0.0724,0.775
LOC442671 (retired record) (GeneID 442671),-0.129,0.561,0.57
ZNF648 (GeneID 127665),-0.0973,-0.363,-0.503
PTAR1 (GeneID 375743),1,1.36,1.42
MCIDAS (GeneID 345643),1.1,0.977,1.4
ZNF235 (GeneID 9310),-0.108,-0.444,-0.505
TRAPPC14 (GeneID 55262),0.65,0.786,0.571
ZNF701 (GeneID 55762),-2.31 (active),-1.97,-1.72
RPP21 (GeneID 79897),-0.403,-0.308,-0.0275
LOC440986 (retired record) (GeneID 440986),-0.284,-0.256,-0.68
TERB1 (GeneID 283847),-0.808,-0.951,-0.796
DCDC2 (GeneID 51473),2.46,1.88,-1.28
REG3A (GeneID 5068),-0.405,-0.554,0.35
TTC38 (GeneID 55020),0.862,0.0397,1.65
ZNF430 (GeneID 80264),0.268,0.377,0.445
LOC390625 (retired record) (GeneID 390625),-1.01,-0.798,-0.802
LOC342600 (retired record) (GeneID 342600),-0.879,-1.06,-1.12
FSCN3 (GeneID 29999),-1.07,-1.86,-3.04
LINC00664 (GeneID 400680),0.128,0.322,-0.188
ARSJ (GeneID 79642),-2.07,-1.74,-1.76
GAS6 (GeneID 2621),0.657,3.42,1.19
APTX (GeneID 54840),-0.466,-0.273,-0.633
ZNF705A (GeneID 440077),0.664,0.453,0.258
LOC123855 (retired record) (GeneID 123855),1.11,1.35,1.67
CDC123 (GeneID 8872),-1.26,-0.843,-1.36
LOC389394 (retired record) (GeneID 389394),1.16,1.01,1.46
ZNRF2 (GeneID 223082),-0.47,-0.454,-0.408
CD68 (GeneID 968),-0.296,0.548,-0.514
PSMB6 (GeneID 5694),-1.02,-0.497,-0.908
TRIM16 (GeneID 10626),-0.0082,1.73,0.914
MTTP (GeneID 4547),1.07,0.36,0.979
DNAJB11 (GeneID 51726),-0.00364,0.294,0.375
AIG1 (GeneID 51390),0.677,0.663,0.79
KLF4 (GeneID 9314),-0.358,-0.361,-0.545
ARMC5 (GeneID 79798),0.0914,0.771,0.184
GSX2 (GeneID 170825),-1.71,-0.999,-1.87
LOC339782 (retired record) (GeneID 339782),0.289,0.443,0.672
LOC441015 (retired record) (GeneID 441015),-0.964,-1.34,-1
TRPT1 (GeneID 83707),0.0403,0.534,0.585
NDUFV2 (GeneID 4729),1.93,1.32,2.25
REPS2 (GeneID 9185),-1.05,-0.47,-0.327
LOC401038 (retired record) (GeneID 401038),-1.31,-1.57,-1.58
LINC01376 (GeneID 400945),-0.983,-0.987,-0.874
NRXN3 (GeneID 9369),0.38,-0.167,-0.212
MUC7 (GeneID 4589),1.25,1.49,1.71
TTC13 (GeneID 79573),0.0361,0.698,0.84
CCNJ (GeneID 54619),-0.0128,-0.485,-1

Reagents listed above called active:
gene knocked down,"robust z-score, replicate 1","robust z-score, replicate 2","robust z-score, replicate 3"
LOC440805 (retired record) (GeneID 440805),2.39 (active),2.3,2.4
PAXX (GeneID 286257),3.03 (active),3.11,3.84
ZNF701 (GeneID 55762),-2.31 (active),-1.97,-1.72
